Taken from: PubChem BioAssay AID1224829 (NIAID, 2016)
Shown is a random part of about 3,800 deposited reagents. 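Calls cover raised and lowered translocation; gene median uses one vendor's three siRNAs; qiagen siRNAs acted more weakly than ambion siRNAs.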 Entries without a mark were called inactive. Reagents against one gene are numbered here. Not all columns of the deposit are shown. Reagent sequences are not shown.

Assay: 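Genes needed for LPS-driven NF-kappaB p65 nuclear entry in mouse macrophages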 (follow-up of hits)
Cell system: mouse RAW264.7 G9 macrophage reporter cells
Knock-down reagent: single siRNA against mouse genes, 100 nM
Time to read-out: 2 days of siRNA knock-down, then 40 min of LPS before fixing
Challenge: LPS (Salmonella minnesota R595) at 10 ng/ml
Measured: 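Imaging of GFP-p65 after 40 min of LPS; nuclear over perinuclear ring intensity ratio, scaled to plate median and non-targeting control wells, given as z-score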
Direction: p65 translocation z-score: higher = more nuclear NF-kappaB p65 after LPS
Active means: 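An siRNA is called active when the mean z-score of its two replicates is above 2 or below -2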
Meaning of the calls: active = changed p65 translocation (either direction); inactive = no clear change

target	siRNA no.	siRNA vendor or control pool	p65 translocation z-score, replicate mean
Gnpnat1	1	ambion single siRNA	-1.74
Gnpnat1	2	ambion single siRNA	-2.93 (active)
Gnpnat1	3	ambion single siRNA	-4.51 (active)
Gnpnat1	4	qiagen single siRNA	-1.32
Gnpnat1	5	qiagen single siRNA	-0.772
Gnpnat1	6	qiagen single siRNA	-3.98 (active)
Gspt1	1	ambion single siRNA	-0.234
Gspt1	2	ambion single siRNA	-1.53
Gspt1	3	ambion single siRNA	0.546
Gspt1	4	qiagen single siRNA	-3.24 (active)
Gspt1	5	qiagen single siRNA	-1.93
Gspt1	6	qiagen single siRNA	-0.99
Fam221b	1	ambion single siRNA	-2.2 (active)
Fam221b	2	ambion single siRNA	-0.948
Fam221b	3	ambion single siRNA	-1.05
Fam221b	4	qiagen single siRNA	1.34
Fam221b	5	qiagen single siRNA	-0.306
Fam221b	6	qiagen single siRNA	1.26
Sqor	1	ambion single siRNA	-0.976
Sqor	2	ambion single siRNA	-1.52
Sqor	3	ambion single siRNA	-2.04 (active)
Sqor	4	qiagen single siRNA	0.283
Sqor	5	qiagen single siRNA	-0.933
Sqor	6	qiagen single siRNA	-6.15 (active)
